Results are given in words; binding and its absence hold for the method and conditions named. Binding seen in cells or lysates may run through a third protein. Some entries that bind do so weakly or less than the wild type.
Molecular target: T1, Protein kinase R (PKR)-like ER kinase (PERK), endogenous in mouse heart (mouse (endogenous in heart)) (UniProt Q9Z2B5)
T1 sequence: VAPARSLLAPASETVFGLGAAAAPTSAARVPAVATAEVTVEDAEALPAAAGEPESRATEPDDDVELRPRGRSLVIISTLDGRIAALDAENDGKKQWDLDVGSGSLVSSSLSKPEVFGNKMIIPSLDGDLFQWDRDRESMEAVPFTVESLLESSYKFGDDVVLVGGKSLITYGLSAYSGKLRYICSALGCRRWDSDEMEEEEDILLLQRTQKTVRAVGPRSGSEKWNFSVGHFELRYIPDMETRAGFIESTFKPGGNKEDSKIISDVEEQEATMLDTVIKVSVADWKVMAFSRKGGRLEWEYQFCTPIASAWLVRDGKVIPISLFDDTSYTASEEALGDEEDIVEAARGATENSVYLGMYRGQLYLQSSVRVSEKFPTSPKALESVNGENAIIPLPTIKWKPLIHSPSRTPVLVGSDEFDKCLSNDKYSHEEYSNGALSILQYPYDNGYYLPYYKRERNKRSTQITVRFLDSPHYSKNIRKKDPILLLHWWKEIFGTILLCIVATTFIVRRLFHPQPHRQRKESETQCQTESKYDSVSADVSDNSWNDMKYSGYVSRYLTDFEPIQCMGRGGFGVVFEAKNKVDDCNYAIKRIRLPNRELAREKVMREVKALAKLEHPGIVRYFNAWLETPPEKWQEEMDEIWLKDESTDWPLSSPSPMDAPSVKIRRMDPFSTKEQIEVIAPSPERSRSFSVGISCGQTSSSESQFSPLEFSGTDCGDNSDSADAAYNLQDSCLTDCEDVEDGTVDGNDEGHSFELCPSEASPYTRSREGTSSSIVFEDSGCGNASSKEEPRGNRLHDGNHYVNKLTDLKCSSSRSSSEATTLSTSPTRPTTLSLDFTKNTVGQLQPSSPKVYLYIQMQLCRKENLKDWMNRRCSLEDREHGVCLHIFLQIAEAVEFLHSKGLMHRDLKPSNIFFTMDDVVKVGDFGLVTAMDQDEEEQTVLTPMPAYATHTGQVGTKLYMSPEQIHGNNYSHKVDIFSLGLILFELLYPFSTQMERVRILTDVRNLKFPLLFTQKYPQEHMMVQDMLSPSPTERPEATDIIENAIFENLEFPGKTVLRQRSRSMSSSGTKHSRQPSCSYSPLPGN
Experiment: co-IP; protein extracts of Thbs1 DTG hearts at 6 weeks of age; IP of PERK (Protein G Dynabeads) or of Thbs1 (biotin-labelled antibody, streptavidin Dynabeads) overnight at 4 °C; 50 mM Tris-HCl pH 7.4, 150 mM NaCl, 1% Triton X-100; western blot for Thbs1 and PERK

By UniProt entry, the sequences of proteins in these tests, tags left out. Residues count along the entry.
UniProt P35441, residues 19-1170: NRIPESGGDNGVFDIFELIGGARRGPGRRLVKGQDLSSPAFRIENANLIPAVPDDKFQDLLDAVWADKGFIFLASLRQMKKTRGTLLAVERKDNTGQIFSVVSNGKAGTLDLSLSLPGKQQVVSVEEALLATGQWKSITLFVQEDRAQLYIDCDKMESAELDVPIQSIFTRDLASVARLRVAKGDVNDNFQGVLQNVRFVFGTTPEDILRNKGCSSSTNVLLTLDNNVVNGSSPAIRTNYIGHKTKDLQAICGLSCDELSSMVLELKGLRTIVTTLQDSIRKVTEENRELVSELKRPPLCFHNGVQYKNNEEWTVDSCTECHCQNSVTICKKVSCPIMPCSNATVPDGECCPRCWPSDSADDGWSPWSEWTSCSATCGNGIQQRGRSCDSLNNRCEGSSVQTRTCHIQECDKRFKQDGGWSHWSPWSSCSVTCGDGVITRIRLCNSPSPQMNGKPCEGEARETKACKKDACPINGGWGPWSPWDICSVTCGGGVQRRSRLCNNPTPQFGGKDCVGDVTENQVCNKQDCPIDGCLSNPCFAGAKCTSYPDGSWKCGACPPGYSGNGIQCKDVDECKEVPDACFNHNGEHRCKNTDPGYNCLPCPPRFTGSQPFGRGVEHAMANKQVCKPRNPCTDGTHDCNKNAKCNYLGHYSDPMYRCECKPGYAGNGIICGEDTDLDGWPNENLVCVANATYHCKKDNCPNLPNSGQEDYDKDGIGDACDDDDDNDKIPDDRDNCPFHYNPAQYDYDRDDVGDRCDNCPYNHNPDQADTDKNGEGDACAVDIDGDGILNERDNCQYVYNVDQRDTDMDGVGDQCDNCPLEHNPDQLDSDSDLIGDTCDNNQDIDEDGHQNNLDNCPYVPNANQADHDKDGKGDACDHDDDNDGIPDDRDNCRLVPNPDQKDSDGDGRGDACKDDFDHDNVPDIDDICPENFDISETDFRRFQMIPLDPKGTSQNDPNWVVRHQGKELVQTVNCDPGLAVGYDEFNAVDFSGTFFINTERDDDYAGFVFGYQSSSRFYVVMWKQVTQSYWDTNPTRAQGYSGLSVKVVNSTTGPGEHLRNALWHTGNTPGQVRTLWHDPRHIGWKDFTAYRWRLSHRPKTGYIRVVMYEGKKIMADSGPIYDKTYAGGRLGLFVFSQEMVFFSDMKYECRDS

Thrombospondin-1 (Thbs1), full-length mouse, cardiomyocyte-specific transgene (from UniProt P35441 19-1170)
binding: binds

Reference: PMC8225674
